Results as given in paper PMC4831018.
These are yes or no findings as the source states them, for the method shown. Binding seen in cells or lysates may run through a third protein. Binding can be weak; no strength is given.

The chains behind the UniProt entries cited, without tags or fusion partners. Where a name states a change or a piece, a line headed by the entry shows the natural chain unless it says otherwise.
UniProt B9PY91: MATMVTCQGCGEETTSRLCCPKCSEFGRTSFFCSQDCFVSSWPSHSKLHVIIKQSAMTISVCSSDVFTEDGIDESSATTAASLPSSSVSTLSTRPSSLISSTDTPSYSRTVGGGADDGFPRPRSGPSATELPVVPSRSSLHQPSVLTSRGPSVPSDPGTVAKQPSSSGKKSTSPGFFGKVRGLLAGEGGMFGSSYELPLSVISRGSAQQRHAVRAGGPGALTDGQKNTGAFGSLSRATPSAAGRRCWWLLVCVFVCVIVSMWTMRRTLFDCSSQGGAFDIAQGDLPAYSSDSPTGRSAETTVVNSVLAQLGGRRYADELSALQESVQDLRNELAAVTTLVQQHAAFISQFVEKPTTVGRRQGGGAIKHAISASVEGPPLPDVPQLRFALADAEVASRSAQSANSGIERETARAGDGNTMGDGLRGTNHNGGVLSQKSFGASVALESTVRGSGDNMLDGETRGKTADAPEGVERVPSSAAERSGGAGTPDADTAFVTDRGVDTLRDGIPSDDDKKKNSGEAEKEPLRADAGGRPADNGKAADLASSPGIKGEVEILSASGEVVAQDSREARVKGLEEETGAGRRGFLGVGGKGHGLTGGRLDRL

Biological target: TgVps29-cMyc (Toxoplasma gondii)
Assay: co-IP; reverse immunoprecipitation from total detergent extracts of knock-in TgVps35-HA, TgVps29-cMyc or TgVps26-HA parasites; western blot; negative control with naïve sera

With TgHP12 (from UniProt B9PY91) the binding was “binds”.
